PubChem BioAssay AID504764 – Drosophila RNAi Screening Center, 2011
Aim: 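Genes whose knock-down alters Notch-dependent transcription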 (primary screen). Cells: Drosophila Kc167 cells. Knock-down reagent: long dsRNA against Drosophila genes. Duration: about 5 days (4 days dsRNA, then 24 h after transfection). Conditions: transfection of constitutively active membrane-tethered Notch lacking the extracellular domain, read 24 h later. Measurement: 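Light from a Notch-responsive E(spl)m3 luciferase reporter under active Notch, with control-promoter and no-Notch reporter wells to normalise; raw counts from paired wells a and b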. Reading the numbers: induced reporter light, run 1, well a and induced reporter light, run 1, well b: higher = more light from the Notch target reporter with active Notch; control promoter light, run 1, well a and control promoter light, run 1, well b: higher = more light from the viral control promoter (cell number, transfection, viability); uninduced reporter light, run 1, well a: higher = more light from the Notch target reporter without active Notch. Hit rule: 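Hit if the duplicate-averaged log2 ratio of induced to control-promoter light gives a plate-wise z beyond ±2, or induced to uninduced beyond ±1.8; weak-control or discordant-duplicate wells dropped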. Calls: active = modifier hit (raised or lowered Notch signal); inactive = not a hit.
The deposit covers about 22,000 reagents; this is a random part of those with a known target gene and a result. In the full data, 403 (1.9%) got an active call. 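Unnormalised raw counts per well; ratio z-scores behind the hit calls and whether each hit raises or lowers signal are not deposited.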 A plus sign joins genes that one reagent is predicted to hit. No sequences are given here. Not given: the amount of reagent.

| gene | PubChem SID | induced reporter light, run 1, well a | induced reporter light, run 1, well b | control promoter light, run 1, well a | control promoter light, run 1, well b | uninduced reporter light, run 1, well a | activity call |
| --- | --- | --- | --- | --- | --- | --- | --- |
| CG15365 | SID104197830 | 5615 | 5925 | 9170 | 10540 | 2455 | inactive |
| CG14646 | SID104192024 | 1.35e5 | 1.06e5 | 75020 | 71645 | 8050 | inactive |
| CG13716 | SID104188117 | 2.22e5 | 1.47e5 | 1.33e5 | 1.49e5 | 7750 | inactive |
| CG13716 | SID104202174 | – | – | – | – | – | active |
| CG5098 | SID104186707 | 89395 | 93420 | 1.75e5 | 1.58e5 | 7505 | inactive |
| CG2278 | SID104198018 | 1.59e5 | 1.57e5 | 2.48e5 | 2.25e5 | 8980 | inactive |
| CG34376 | SID104194487 | 1.36e5 | 1.26e5 | 1.34e5 | 1.32e5 | 9565 | inactive |
| CG34376 | SID104194488 | 1.56e5 | 1.35e5 | 2.04e5 | 1.82e5 | 12950 | inactive |
| CG34376 | SID104194493 | 1.75e5 | 1.80e5 | 1.87e5 | 1.60e5 | 13510 | inactive |
| r-l | SID104196834 | 1.57e5 | 1.84e5 | 1.97e5 | 2.49e5 | 15145 | inactive |
| r-l | SID104202143 | – | – | – | – | – | inactive |
| plum | SID104195846 | 2.25e5 | 2.08e5 | 2.52e5 | 3.08e5 | 14235 | inactive |
| CG40341 (retired record) | SID104181559 | 85850 | 64585 | 73985 | 77290 | 7328 | inactive |
| CG40341 (retired record) | SID104183542 | 67035 | 76275 | 78590 | 81425 | 6460 | inactive |
| eater | SID104195761 | 1.52e5 | 1.63e5 | 1.99e5 | 1.88e5 | 14180 | inactive |
| eater | SID104201779 | – | – | – | – | – | inactive |
| ebd1 | SID104188357 | 1.13e5 | 1.07e5 | 1.43e5 | 1.52e5 | 10690 | inactive |
| Or30a | SID104183177 | 1.12e5 | 1.40e5 | 65580 | 72720 | 19025 | inactive |
| CG17834 | SID104182429 | 2.27e5 | 2.84e5 | 1.92e5 | 2.12e5 | 15595 | inactive |
| CG31267 | SID104195540 | 2.01e5 | 1.73e5 | 1.92e5 | 1.77e5 | 15305 | inactive |
| CG14969 | SID104188220 | 1.29e5 | 1.23e5 | 1.16e5 | 58430 | 15325 | inactive |
| Git | SID104186412 | 1.76e5 | 1.45e5 | 1.56e5 | 1.51e5 | 14330 | inactive |
| Nepl7 | SID104182287 | 1.43e5 | 1.62e5 | 1.43e5 | 1.61e5 | 11440 | inactive |
| NK7.1 | SID104196547 | 55560 | 57340 | 34900 | 32835 | 8375 | inactive |
| D | SID104190924 | 1.88e5 | 1.64e5 | 1.63e5 | 2.45e5 | 8575 | inactive |
| Pal1 + Pdrg1 | SID104186379 | 3.22e5 | 2.86e5 | 3.05e5 | 2.56e5 | 25575 | active |
| CG12655 | SID104200470 | 76960 | 79185 | 91445 | 1.31e5 | 10165 | inactive |
| glo | SID104195937 | 73185 | 67160 | 88235 | 65140 | 7438 | inactive |
| gskt | SID104193848 | 92955 | 90085 | 95895 | 97025 | 7582 | inactive |
| aru | SID104180594 | 1.34e5 | 1.04e5 | 99625 | 52795 | 9905 | inactive |
| eIF3h | SID104181787 | 20070 | 21292 | 29635 | 25955 | 2095 | active |
| snu | SID104196381 | 1.84e5 | 1.67e5 | 2.53e5 | 1.78e5 | 11560 | inactive |
| Sec16 | SID104199580 | 1.05e5 | 91005 | 1.44e5 | 1.30e5 | 6480 | inactive |
| Sec16 | SID104199650 | 1.17e5 | 1.31e5 | 2.04e5 | 2.43e5 | 9645 | inactive |
| Gr89a | SID104194815 | 1.88e5 | 1.85e5 | 1.91e5 | 1.94e5 | 14765 | inactive |
| ci | SID104196964 | 1.18e5 | 1.10e5 | 1.99e5 | 2.65e5 | 9220 | inactive |
| CG14113 | SID104189908 | 1.46e5 | 1.20e5 | 1.33e5 | 1.29e5 | 6450 | inactive |
| ChLD3 | SID104182432 | 1.36e5 | 1.28e5 | 1.58e5 | 1.79e5 | 11290 | inactive |
| neur | SID104196805 | 1.42e5 | 1.19e5 | 98605 | 82485 | 11100 | inactive |
| CG5693 | SID104182670 | 1.13e5 | 1.24e5 | 1.23e5 | 1.39e5 | 9905 | inactive |
| beat-IIb | SID104193011 | 12138 | 11980 | 16955 | 19068 | 3125 | inactive |
| beat-IIb | SID104194608 | 2.37e5 | 2.54e5 | 2.50e5 | 2.57e5 | 18930 | inactive |
| beat-IIb | SID104195338 | 2.40e5 | 2.80e5 | 2.39e5 | 2.48e5 | 21600 | inactive |
| kek4 | SID104183012 | 2.31e5 | 2.12e5 | 1.96e5 | 2.28e5 | 18135 | inactive |
| CG31550 | SID104191989 | 72015 | 74400 | 60135 | 43680 | 7385 | inactive |
| CG31550 | SID104191990 | 1.35e5 | 1.36e5 | 89595 | 76450 | 9380 | inactive |
| RabX1 | SID104184470 | 1.54e5 | 1.59e5 | 1.77e5 | 1.74e5 | 12145 | inactive |
| CG42553 | SID104188148 | 1.08e5 | 1.65e5 | 1.52e5 | 2.25e5 | 7278 | inactive |
| vap | SID104200067 | 1.73e5 | 1.53e5 | 1.80e5 | 1.74e5 | 11555 | inactive |
| Nsun5 | SID104195627 | 1.71e5 | 1.86e5 | 2.10e5 | 2.45e5 | 17930 | inactive |
